Experimental data: publication PMC10234869
Results are given in words; binding and its absence hold for the method and conditions named. In cells and extracts the contact can be indirect. A result given as binding can be weak or reduced; the word gives no strength. Tags and fused reporters may be left off the sequences shown.

Sequences of proteins named here, by UniProt entry; tags and fusion partners are left off. A change or cut given only in a name is not applied to a line headed by its entry.
UniProt Q8CF31: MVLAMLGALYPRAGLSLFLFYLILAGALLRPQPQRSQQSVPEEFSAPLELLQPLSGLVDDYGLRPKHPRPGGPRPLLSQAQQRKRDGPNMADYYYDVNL

Columns and labels:
[1] = target: Frey1-3xFLAG TMD mutant (TMD mut) (murine) (UniProt Q8CF31); assay: co-IP; competitive co-immunoprecipitation pulling on Frey1-3xFLAG or its TMD mutant from transiently transfected HEK cells, with or without co-expressed HA-HO-1 as model substrate; SPPL2c blotted
[2] = target: Frey1-3xFLAG TMD mutant (TMD mut) (murine) (UniProt Q8CF31); assay: co-IP; anti-FLAG M2 and Protein G agarose from 0.5% CHAPSO lysates (1 mg in 500 µl, overnight, 4 °C) of transiently transfected HEK293T cells; four washes with CHAPSO buffer; eluates blotted; co-precipitated SPPL2c divided by the precipitated Frey1 or PLN variant and normalised to wild-type Frey1

B1: Signal Peptide Peptidase-like 2c, C-terminally myc-tagged (SPPL2c-myc) (enzyme, UniProt A2A6C4 29-690)
chain: EYGLVRVVSKNWSKDYCVLYSSDYVNLPRDLHHAPLLSLHDGTKTPWCPDEDSFHQAQDSSPRQRPLHQTTTMVTRGNCSFYAKGWLAQDQGAQGLLIVSRARNQQCSDTISKPQDPSKPWPALTIPVAVLRYTDMLDIVSHTYGDTDVRVAMFAPLEPVTDYNMAIIFILAVGTVAAGGYWAGLMEANKLQRRQAQRGGGLGGHNQQQTVAAERSQRAWEDDDFEDAPMDFTPAMTGAVVTMSCSIMILLYFFYDCFVYVMIGIFSLGASTGLYSCLAPILCHLPLWRYQWVLPGQRVSVTWPLLLLAGLCAMVTVLWVIHRNEDHWAWLLQDTLGVAYCLFVLRRVRLPTFKNCTLFLLALLAFDVFFVFITPLFTKTGESIMVEVASGPADSSSHERLPMVLKVPRLSFSALTLCNQPFSILGFGDIVVPGFLVAYCHRFDMQVQSRQVYYMACTVAYAVGLLVTFVAMILMQMGQPALLYLVSSTLLTSLAVATCRQEFTLFWTGQGRAKIPAEPVAQPCIASAVGSKMKLEDAKDSRTTNRFEQAVDGESGDLESSTGDDMAEMVTLSEDEATSPEGHSESSEGWSDTNLDPNELPSGSPMALEAMLIPLIQPIPHPSELGHIRTQSRVHDSSLPWMGLHKRKGLKVKKSMSAQAPL
- binding [1]: binds
- binding [2]: binds
